Data on one substance can be found in publication PMC3741163.

Amino acid sequences for entries named in this document (tags omitted). Residues count along the entry.
UniProt P51677: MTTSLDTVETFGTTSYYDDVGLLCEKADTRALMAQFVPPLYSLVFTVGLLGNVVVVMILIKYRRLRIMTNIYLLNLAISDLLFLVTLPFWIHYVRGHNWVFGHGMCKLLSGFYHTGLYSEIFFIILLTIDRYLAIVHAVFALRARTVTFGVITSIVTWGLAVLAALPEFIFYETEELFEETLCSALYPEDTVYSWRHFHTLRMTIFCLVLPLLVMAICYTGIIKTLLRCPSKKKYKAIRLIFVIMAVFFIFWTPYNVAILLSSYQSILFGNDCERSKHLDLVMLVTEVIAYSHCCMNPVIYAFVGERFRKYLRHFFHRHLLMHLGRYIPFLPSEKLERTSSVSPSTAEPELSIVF
UniProt P51671, residues 24-97: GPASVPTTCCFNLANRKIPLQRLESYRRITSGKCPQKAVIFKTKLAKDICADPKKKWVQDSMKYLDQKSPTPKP

In the test the target is CCR3 (UniProt P51677). Description: radioligand binding; equilibrium competition on L1.2/CCR3 transfectants, tracer 0.1 nM 125I-CCL11, 0.1 x10^6 cells/well, competitor 10^-6 to 10^-12 M, room temperature 4 h, filtration; only the binder purified.

Results are given in words; binding and its absence hold for the method and conditions named. Some binding calls cover weakened binding; strength is not graded here.

Consider “^125I-CCL11 (from UniProt P51671 24-97) (ligand)”, for which the binding entry is “binds”.
